The test has as its target T1, GFP–S100A11 (S100 Ca2+-binding protein A11) (human) (UniProt P31949).
T1 sequence: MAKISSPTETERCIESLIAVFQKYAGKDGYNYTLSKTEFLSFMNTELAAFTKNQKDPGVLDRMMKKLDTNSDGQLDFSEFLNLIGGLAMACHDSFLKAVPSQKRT
As to the kind of experiment: co-IP; GFP-Trap beads on cleared lysates of clonal MCF-10A cells stably expressing GFP–S100A11, arrested in metaphase; mild lysis buffer (50 mM Tris-HCl pH 7.4, 150 mM NaCl, 0.5 mM EDTA, 10 mM NaF, 1 mM Na3VO4, 0.5% NP40); western blotting of the immunoprecipitates. On the technique in general: A western blot detects proteins with antibodies after separation by electrophoresis.

No constants are given. Whether binding was seen depends on the method and setting. Binding seen in cells or lysates may run through a third protein. Binding can be weak; no strength is given. Tags and fused reporters may be left off the sequences shown.

Regarding “E-cadherin (human (endogenous in MCF-10A))”, the binding entry is reported as “binds”.
